From patent publication US8097650B2, “Method of treating a condition associated with phosphorylation of TASK-1” (The Trustees of Columbia University In The City of New York, priority 2005, dated 2012)
Some entries share one result that the patent states for a list of compounds. At least one compound was matched to its structure with a doubt left.

Test system: murine TASK-1
Assay: TASK-1 current expressed in CHO cells (whole-cell ramp clamp)
Assay type: cell-based, mouse
Conditions: activation of PKCε
Description: The TASK-1 clone (provided by Professor Y. Kurachi, Osaka University) was co-transfected in CHO cells with CD8 plasmid using Lipofectamine Plus (Invitrogen) according to the manufacturer's instructions. 48 h later cells were transferred to the electrophysiology chamber and anti-CD8 coated beads (Dynal Biotech) were added to identify CD8 expressing cells. Expressing cells were voltage clamped using a ramp clamp (see below). CHO cells were used in these experiments, in part, because they express endogenous PAFR.
Chinese hamster ovary cells (CHO) were grown in F-12 medium supplemented with 10% fetal bovine serum. Twenty-four hours prior to transfection, cells were seeded into 6 well plates at 80-90% of confluence. […]
Cells were either co-transfected with pCMV-TASK1 together with pEGFP-C1 (1 μg total, 3:1) or transfected with […] or T381A-pTIE (1 μg). 48 h after the transfection the cells were checked under the microscope for green fluorescence. […]
The myocyte suspension or the coverslip with CHO cells was placed into a perfusion chamber, mounted on the stage of an inverted microscope. […] Membrane potential and current were measured in the whole cell configuration using borosilicate glass pipettes with a tip resistance between […] and filled with a pipette solution containing (mM): aspartic acid, 130; KOH, 146; NaCl, 10; CaCl2, 2; EGTA, 5; HEPES, 10; MGATP, 2; pH 7.2. […]

CCCCCCCCCCCCCC(=O)O[C@@H]1[C@@H](C)[C@@]2(O)[C@@H](C=C(CO)C[C@]3(O)C(=O)C(C)=C[C@@H]23)[C@@H]2C(C)(C)[C@]12OC(C)=O [PMA, phorbol 12-myristate 13-acetate]
reduction of TASK-1 current: ≤ 20%

platelet-activating factor [PAF]
reduction of TASK-1 current: ≤ 20%
